Measured values as given in PubChem BioAssay AID540256 (National Center for Advancing Translational Sciences (NCATS), 2011).
The whole screen tested about 300,000 compounds, of which about 3,700 (1.2%) were called active. Inconclusive results, whose numbers are uncertain, are shown with a selection of clear calls. Calls follow the shape of the full dose curve; tested in HEK293 cells. A potency beside an inconclusive call is a rough fit, not a confirmed value.

test: qHTS for Inhibitors of binding or entry into cells for Lassa Virus; conditions: Lassa virus pseudotype entry inhibition, cell reporter; series mostly up to 37.9 µM; also: nearly all actives have a fitted effect of over 50% in size
Potency is read from the fitted curve at half-maximal effect.

Row | SMILES | Potency
1 | CSc1nc(N(C)NC(=O)c2ccccc2)c2ccccc2n1 | inconclusive: 0.112 µM [inhibitor, full curve, poor fit]
2 | O=C(Nc1nc2cc3c(cc2s1)OCO3)C1=COCCO1 | inconclusive: 0.92 µM [inhibitor, full curve, poor fit]
3 | COc1ccccc1N(C)S(=O)(=O)c1ccc(C(=O)NCC(C)C)cc1 | inconclusive: 16.4 µM [inhibitor, single point]
4 | N#CC(C#N)=Cc1ccc(O)c(O)c1 | inconclusive: 2.06 µM [activator, partial curve, poor fit]
5 | O=C(Cn1cnc2c(cnn2-c2ccc(Cl)cc2)c1=O)N1CCN(c2ccccc2)CC1 | inconclusive: 11.2 µM [inhibitor, partial curve]
6 | COc1ccc2cc(CNc3ccccc3)c(=O)n(CC(=O)Nc3ccc(C)cc3C)c2c1 | inconclusive: 31.6 µM [inhibitor, single point]
7 | Cc1cc(-c2nc(C)c(C(=O)NNC(=O)NC(C)C)s2)no1 | inconclusive: 35.5 µM [inhibitor, single point]
8 | COc1cnc(-c2ccccn2)nc1N(C)c1ccccc1 | inconclusive: 35.5 µM [inhibitor, single point]
9 | CCOC(=O)c1c(C)[nH]c(C(C)=NNC(=O)c2cccs2)c1C | inconclusive: 0.794 µM [activator, full curve, poor fit]
10 | Cc1cc2nc(-c3ccc(SCc4ccc(C#N)cc4)nc3)[nH]c2cc1C | inconclusive: 32.6 µM [inhibitor, single point]
11 | CCN1CCN(Cc2cc(OC)c(OC)cc2[N+](=O)[O-])CC1 | inactive
12 | CN(C)C(CNC(=O)C1CCN(S(=O)(=O)c2cccc(C(F)(F)F)c2)CC1)c1ccccc1 (centres undefined) | inconclusive: 35.5 µM [activator, partial curve, poor fit]
13 | O=C(Nc1ccc(Cl)c([N+](=O)[O-])c1)C(Sc1ccccc1)c1ccccc1 (centres undefined) | inconclusive: 20.6 µM [inhibitor, single point]
14 | CC(C)(C)c1ccc(C(=O)N2CC(=O)Nc3ccc(F)cc3C2c2ccc(F)cc2)cc1 (centres undefined) | inconclusive: 2.51 µM [inhibitor, partial curve, poor fit]
15 | CCOC(=O)C1=C(c2ccccc2)N=c2s/c(=C\c3cc(OC)c(OC)c(OC)c3)c(=O)n2C1c1cccs1 (centres undefined) | inconclusive: 16.4 µM [inhibitor, partial curve, poor fit]
16 | CCOc1ccccc1C(=O)NCC(=O)Nc1ccc2c(c1)OCO2 | inactive
17 | CCc1cnc2c(c1SCC(=O)NCc1ccccc1)c(=O)n(C)c(=O)n2C | inactive
18 | CCOC(=O)c1sc(NC(=O)c2ccc(Br)o2)cc1C | inconclusive: 1.26 µM [activator, single point]
19 | O=S(=O)(Nc1cccnc1)c1ccc(C2CCCCC2)cc1 | inactive
20 | COc1ccccc1C1C=C(c2ccccc2)Nc2nnnn21 (centres undefined) | inactive
21 | CC1=CCC2C(=O)N(c3cccc(C(=O)NCc4ccccc4)c3)C(=O)C2C1 (centres undefined) | inconclusive: 14.1 µM [inhibitor, single point]
22 | Cc1ccc(Cl)cc1Nc1sc(C(=O)c2ccccc2)c(N)c1S(=O)(=O)c1ccccc1 | inconclusive: 35.5 µM [activator, single point]
23 | Cc1ccc(C(=O)Nc2nnc(C3CCCCC3)s2)o1 | inconclusive: 18.3 µM [inhibitor, single point]

Row | SMILES | Potency
24 | CCOC(=O)CSc1nc(N)c(C#N)cc1C#N | inactive
25 | Cc1nn(-c2ccccc2)c(C)c1/C=N/NC(=O)CSc1nnc(SCc2ccc(Cl)cc2)s1 | active: 9.2 µM
26 | COc1ccc(CC(=O)N2CCCc3ccccc32)cc1OC | inconclusive: 35.5 µM [inhibitor, single point]
27 | CC(=O)Nc1ccc(S(=O)(=O)Oc2ccc(/C=N/NC(=O)c3ccc(Cl)cc3)cc2)cc1 | inactive
28 | COc1ccc(NC(=O)CN(c2ccc([N+](=O)[O-])cc2)S(=O)(=O)c2ccccc2)cc1 | inconclusive: 23.1 µM [inhibitor, single point]
29 | CCc1cc(=O)oc2cc(C)cc(OC(C)C(=O)NCCCn3ccnc3)c12 (centres undefined) | inactive
30 | Cc1nc(SCC(=O)c2ccccc2)[nH]c(=O)c1Oc1ccc(Cl)cc1 | inconclusive: 35.5 µM [activator, single point]
31 | CN(Cc1ccccc1)C(=O)Cn1ncc2c3ccccc3n(Cc3cccc(Cl)c3)c2c1=O | inactive
32 | Cc1cc(C(=O)NNC(=O)c2ccc(Cl)c(S(N)(=O)=O)c2)c(C)o1 | inactive
33 | CC1=C(C(=O)OCCOC(C)C)C(c2cccc3ccccc23)NC(=O)N1 (centres undefined) | inconclusive: 22.4 µM [inhibitor, single point]
34 | COc1cccc(CNC(=O)N2CCC(CN3CCC(C)CC3)CC2)c1 | inactive
35 | COc1ccc(CC(=O)NNC(=S)Nc2ccccc2)cc1Br | inactive
36 | Fc1cccc(NCc2cccn2-c2nnc(N3CCOCC3)s2)c1 | inactive
37 | C=CCn1c(=O)c(CCC(=O)Nc2ccc(N3CCOCC3)cc2)nc2cc(C(F)(F)F)ccc21 | inconclusive: 2.82 µM [inhibitor, single point]
38 | Cc1ccc(CCNC(=O)c2c(C)oc3ncnc(N4CCOCC4)c23)cc1 | inconclusive: 35.5 µM [activator, single point]
39 | COc1ccc(S(=O)(=O)Nc2ccc3c(c2)CCC3)cc1 | inconclusive: 35.5 µM [inhibitor, single point]
40 | COc1ccc(N(CC(O)CN2CCOCC2)S(=O)(=O)c2ccc(C)cc2)cc1 (centres undefined) | inconclusive: 1 µM [inhibitor, full curve]
41 | CCOC(=O)Cc1nnc2c(Nc3ccccc3F)nc3nonc3n12 | inconclusive: 28.2 µM [inhibitor, partial curve, poor fit]
42 | COc1cc(C(=O)OCC(=O)NCc2ccc(F)cc2)ccc1OCC(C)C | inconclusive: 35.5 µM [inhibitor, single point]
43 | CCOc1ccc(NC(=O)Nc2cc(C(C)C)c(O)cc2C)cc1 | inactive
44 | CN(C)CCCn1c2c(c(SCC(=O)Nc3ccc4c(c3)OCO4)nc1=O)CCC2 | inconclusive: 1.26 µM [inhibitor, single point]
45 | COCC(=O)Nc1cc(Cl)ccc1C | inactive
46 | CSC1=NC2(C[C@H]2c2ccccc2)C(=O)N1C (some centres undefined) | inconclusive: 35.5 µM [activator, single point]

Row | SMILES | Potency
47 | CC(Sc1nc2nn(-c3ccccc3)c(=O)c-2c2n1CCCCC2)C(N)=O (centres undefined) | inactive
48 | COc1ccc(-c2cc(C(=O)OCc3ccccn3)c3ccccc3n2)cc1 | inconclusive: 35.5 µM [inhibitor, single point]
49 | Cc1sc(NC(=O)c2c(F)cccc2F)nc1-c1ccccc1 | inconclusive: 6.31 µM [inhibitor, single point]
50 | Cc1ccc(OCC(=O)NCc2ccccc2)c([N+](=O)[O-])n1 | inconclusive: 3.55 µM [inhibitor, single point]
51 | CCOc1ccc2c(c1)c1nc3ccccc3nc1n2C | inconclusive: 10 µM [activator, partial curve, poor fit]
52 | CC1Cc2ccccc2N1C(=O)c1ccc(N2CCCCC2)c([N+](=O)[O-])c1 (centres undefined) | inconclusive: 14.1 µM [inhibitor, partial curve, poor fit]
53 | Cc1ccc(C2=Nc3ccccc3N=C(c3ccc([N+](=O)[O-])cc3)C2)c(O)c1 | inactive
54 | Cc1ccc(C(C)C)c(OCCNS(C)(=O)=O)c1 | inactive
55 | COc1ccc(C(NC(=O)c2ccco2)c2ccc(OC)c(OC)c2)cc1OC | inconclusive: 6.51 µM [activator, single point]
56 | C=C(C)CN(CC)C(=O)COc1ccc(S(=O)(=O)Nc2ccc(OC)cc2)cc1 | inconclusive: 20.6 µM [inhibitor, single point]
57 | CS(=O)(=O)N(CCc1ccccc1)CC(=O)NCc1ccccc1 | inconclusive: 0.316 µM [inhibitor, full curve, poor fit]
58 | COc1ccc(-c2nc(CCNC(=O)c3cccs3)cs2)cc1OC | inconclusive: 7.08 µM [inhibitor, full curve, poor fit]
59 | CSc1nc(N2CCOCC2)c2c3c(sc2n1)CCCC3 | inactive
60 | CCC(C(=O)Nc1cc(C(=O)Nc2cc(C)ccn2)ccc1Cl)c1ccccc1 (centres undefined) | inactive
61 | COc1ccc(N(C)S(=O)(=O)c2cccc(C(=O)OCC(=O)c3c(N)n(C)c(=O)n(C)c3=O)c2)cc1 | inconclusive: 35.5 µM [inhibitor, single point]
62 | CCCCN(C)C(=O)CN1C(=O)CCn2nc(-c3cn(C)c4ccccc34)cc21 | inactive
63 | CCOc1ccc(NS(=O)(=O)c2cc(NC(=O)c3ccc(C)cc3)ccc2Cl)cc1 | inconclusive: 2.51 µM [inhibitor, partial curve, poor fit]
64 | O=C1C(Cl)=C(N2CCOCC2)C(=O)N1c1cccc(Cl)c1 | inactive
65 | O=C1NC(=O)C(=CN2CCc3ccccc32)C(=O)N1 | inconclusive: 0.794 µM [activator, full curve, poor fit]
66 | CCOc1cc(C2NCc3ccccc3-n3cccc32)ccc1O (centres undefined) | inactive
67 | CCC(=NC(C)c1ccccc1)c1c(O)n(C)c(=O)n(C)c1=O (centres undefined) | inconclusive: 3.26 µM [inhibitor, full curve]
68 | CCOc1ccccc1NC(=O)CN(CCc1ccccc1)S(=O)(=O)c1ccc(C)cc1 | inactive
69 | CC(NC(=O)CN(C)CC(=O)Nc1ccc(Cl)c(C(F)(F)F)c1)c1ccccc1 (centres undefined) | inconclusive: 11.2 µM [inhibitor, single point]

In a second layout: entries from further up.
Row	SMILES	Potency
49	Cc1sc(NC(=O)c2c(F)cccc2F)nc1-c1ccccc1	inconclusive: 6.31 µM [inhibitor, single point]
59	CSc1nc(N2CCOCC2)c2c3c(sc2n1)CCCC3	inactive
66	CCOc1cc(C2NCc3ccccc3-n3cccc32)ccc1O (centres undefined)	inactive
